Record: PubChem BioAssay AID504764 (Drosophila RNAi Screening Center, 2011)
The screen tested about 22,000 reagents; below is an unselected part of those with a known target gene and a result. In the full data, 403 (1.9%) were called active. 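Unnormalised raw counts per well; ratio z-scores behind the hit calls and whether each hit raises or lowers signal are not deposited.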 A number with no mark means an inactive call. A plus sign joins genes that one reagent is predicted to hit. The record does not give: the amount of reagent.

- Test: 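Knock-downs that raise or lower a Notch target reporter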 (primary screen)
- System: Drosophila Kc167 cells
- Reagent: long dsRNA against Drosophila genes
- Duration: about 5 days (4 days dsRNA, then 24 h after transfection)
- Conditions: transfection of constitutively active membrane-tethered Notch lacking the extracellular domain, read 24 h later
- Detection: 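Light from a Notch-responsive E(spl)m3 luciferase reporter under active Notch, with control-promoter and no-Notch reporter wells to normalise; raw counts from paired wells a and b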
- Scale: induced reporter light, run 1, well a and induced reporter light, run 1, well b: higher = more light from the Notch target reporter with active Notch; control promoter light, run 1, well a and control promoter light, run 1, well b: higher = more light from the viral control promoter (cell number, transfection, viability); uninduced reporter light, run 1, well a: higher = more light from the Notch target reporter without active Notch
- Active means: 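Hit if the duplicate-averaged log2 ratio of induced to control-promoter light gives a plate-wise z beyond ±2, or induced to uninduced beyond ±1.8; weak-control or discordant-duplicate wells dropped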
- Calls: active = modifier hit (raised or lowered Notch signal); inactive = not a hit

cv-2 [SID104183653] — induced reporter light, run 1, well a = 1.10e5; induced reporter light, run 1, well b = 86945; control promoter light, run 1, well a = 90750; control promoter light, run 1, well b = 1.12e5; uninduced reporter light, run 1, well a = 10775
cv-2 [SID104184053] — induced reporter light, run 1, well a = 59115; induced reporter light, run 1, well b = 51220; control promoter light, run 1, well a = 39975; control promoter light, run 1, well b = 56025; uninduced reporter light, run 1, well a = 2605
Vti1a [SID104188355] — induced reporter light, run 1, well a = 1.10e5; induced reporter light, run 1, well b = 1.00e5; control promoter light, run 1, well a = 1.72e5; control promoter light, run 1, well b = 1.74e5; uninduced reporter light, run 1, well a = 8715
CG32212 + hpRNA:CR33940 [SID104189410] — induced reporter light, run 1, well a = 2.42e5; induced reporter light, run 1, well b = 2.55e5; control promoter light, run 1, well a = 3.27e5; control promoter light, run 1, well b = 3.06e5; uninduced reporter light, run 1, well a = 20735
strat [SID104182861] — induced reporter light, run 1, well a = 1.53e5; induced reporter light, run 1, well b = 1.89e5; control promoter light, run 1, well a = 1.10e5; control promoter light, run 1, well b = 1.26e5; uninduced reporter light, run 1, well a = 20945
RIOK1 [SID104189645] — induced reporter light, run 1, well a = 1.38e5; induced reporter light, run 1, well b = 1.21e5; control promoter light, run 1, well a = 1.03e5; control promoter light, run 1, well b = 48120; uninduced reporter light, run 1, well a = 11140
CG13074 [SID104189749] — induced reporter light, run 1, well a = 1.46e5; induced reporter light, run 1, well b = 1.90e5; control promoter light, run 1, well a = 2.49e5; control promoter light, run 1, well b = 2.62e5; uninduced reporter light, run 1, well a = 9190

Copied from the list:
Under “induced reporter light, run 1, well a”, CG13074 [SID104189749] shows 1.46e5
Under “uninduced reporter light, run 1, well a”, cv-2 [SID104183653] shows 10775

The list goes on:
CG4291 [SID104180442] — induced reporter light, run 1, well a = 1.98e5; induced reporter light, run 1, well b = 1.92e5; control promoter light, run 1, well a = 2.10e5; control promoter light, run 1, well b = 2.45e5; uninduced reporter light, run 1, well a = 19510
CG13005 [SID104199316] — induced reporter light, run 1, well a = 72370; induced reporter light, run 1, well b = 67225; control promoter light, run 1, well a = 63805; control promoter light, run 1, well b = 63395; uninduced reporter light, run 1, well a = 8155
CG3808 [SID104190169] — induced reporter light, run 1, well a = 58375; induced reporter light, run 1, well b = 48195; control promoter light, run 1, well a = 41585; control promoter light, run 1, well b = 41795; uninduced reporter light, run 1, well a = 3515
CG14301 [SID104194572] — induced reporter light, run 1, well a = 2.06e5; induced reporter light, run 1, well b = 1.76e5; control promoter light, run 1, well a = 1.99e5; control promoter light, run 1, well b = 2.09e5; uninduced reporter light, run 1, well a = 13755
Tbh [SID104198515] — induced reporter light, run 1, well a = 1.44e5; induced reporter light, run 1, well b = 1.48e5; control promoter light, run 1, well a = 2.45e5; control promoter light, run 1, well b = 2.69e5; uninduced reporter light, run 1, well a = 10180
Sys1 [SID104194164] — induced reporter light, run 1, well a = 88400; induced reporter light, run 1, well b = 80670; control promoter light, run 1, well a = 83840; control promoter light, run 1, well b = 73645; uninduced reporter light, run 1, well a = 5855
CG1598 [SID104186390] — induced reporter light, run 1, well a = 1.31e5; induced reporter light, run 1, well b = 1.32e5; control promoter light, run 1, well a = 1.55e5; control promoter light, run 1, well b = 1.65e5; uninduced reporter light, run 1, well a = 12800
CG6276 [SID104195799] — induced reporter light, run 1, well a = 97655; induced reporter light, run 1, well b = 1.12e5; control promoter light, run 1, well a = 67440; control promoter light, run 1, well b = 66470; uninduced reporter light, run 1, well a = 8170
Aptx [SID104195560] — induced reporter light, run 1, well a = 2.50e5; induced reporter light, run 1, well b = 2.02e5; control promoter light, run 1, well a = 2.35e5; control promoter light, run 1, well b = 2.59e5; uninduced reporter light, run 1, well a = 18440
CheB42c [SID104184764] — induced reporter light, run 1, well a = 2.19e5; induced reporter light, run 1, well b = 2.06e5; control promoter light, run 1, well a = 2.31e5; control promoter light, run 1, well b = 1.96e5; uninduced reporter light, run 1, well a = 17275
CG7600 [SID104189473] — induced reporter light, run 1, well a = 1.52e5; induced reporter light, run 1, well b = 89550; control promoter light, run 1, well a = 70670; control promoter light, run 1, well b = 26125; uninduced reporter light, run 1, well a = 10620
